Measurements reported in PubChem BioAssay AID1259308 (NCATS, 2017).
Shown is a random part of about 59,000 reagents tested. Over the whole deposit, about 1,510 (2.6%) are marked active. 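Calls use total luciferase alone and ignore viability, so some active siRNAs may act by altering cell number.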 A number with no mark means an inactive call. Further read-outs or replicates are left out here.

Assay: 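Candidate targets for better recombinant protein yield in mammalian cells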 (primary screen)
Cell system: human HEK293 embryonic kidney cells stably expressing firefly luciferase (HEK-CMV-Luc2-Hygro)
Reagents: single siRNA against human genes, 0.8 pmol siRNA per well
Time to read-out: 72 h
Measurement: 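Reporter luminescence and viable-cell signal on separate replicate plates, given as percent of non-targeting control and median/MAD z-scores, plus per-cell luciferase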
Scale: total luciferase, z-score and total luciferase, % of control: higher = more reporter protein produced
Active means: 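An siRNA counts as active if its total luciferase robust z-score exceeds 3; genes with two or more such siRNAs out of three were retested with fresh siRNAs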
Meaning of the calls: active = raised luciferase; inactive = no rise

Gene	PubChem SID	total luciferase, z-score	total luciferase, % of control
CD300LD-AS1	SID160758402	1.79	118
CD300LD-AS1	SID160758403	-2.21	37.9
CD300LD-AS1	SID160758404	-0.699	68
TTC38	SID160742761	-1.52	51.6
TTC38	SID160742762	0.401	89.9
TTC38	SID160742763	1.13	104
PABPC1L2B	SID160769755	-0.382	74.3
PABPC1L2B	SID160769756	-0.692	68.1
PABPC1L2B	SID160769757	-0.293	76.1
SFTA3	SID160732802	0.34	88.6
SFTA3	SID160762128	-0.408	73.8
SFTA3	SID160762129	1.21	106
NSF	SID160722133	1.05	103
NSF	SID160722239	-0.18	78.3
NSF	SID160722341	1.05	103
FAM110D	SID160749789	0.681	95.4
FAM110D	SID160749790	-0.0286	81.3
FAM110D	SID160749792	2	122
TRIM21	SID160717365	0.505	91.9
TRIM21	SID160717366	-0.214	77.6
TRIM21	SID160717367	-0.371	74.5
CACNA1F	SID160735329	-0.247	77
CACNA1F	SID160735340	0.603	93.9
CACNA1F	SID160735351	-1.14	59.2
SLC6A13	SID160716886	-0.681	68.3
SLC6A13	SID160716887	-1.21	57.8
SLC6A13	SID160716888	1.48	111
TAF11	SID160717674	0.534	92.5
TAF11	SID160717675	1.46	111
TAF11	SID160717676	1.72	116
FUCA2	SID160767652	0.386	89.6
FUCA2	SID160767662	-0.971	62.6
FUCA2	SID160767674	-0.2	77.9
KIF1C	SID160738145	0.129	84.4
KIF1C	SID160738249	1.54	112
KIF1C	SID160738351	-0.259	76.7
ASGR2	SID160720708	-0.795	66.1
ASGR2	SID160723664	0.675	95.3
ASGR2	SID160723665	-0.613	69.7

Records above whose target name starts with P or p (3):
Gene	PubChem SID	total luciferase, z-score	total luciferase, % of control
PABPC1L2B	SID160769755	-0.382	74.3
PABPC1L2B	SID160769756	-0.692	68.1
PABPC1L2B	SID160769757	-0.293	76.1
